Assay results: PMC10070696
These are yes or no findings as the source states them, for the method shown. For some of these results: Binding seen in cells or lysates may run through a third protein. Some results given as binding are weak or reduced against the parent protein; the word gives no strength. Where a sequence is shown, tags or fusion partners need not be part of it. Blank lines part the entries; values can stand above or below the binder they belong to.

How the values were obtained:
[1] = target: T1, BD-ICE1-2 (C-terminal region of ICE1, amino acids 298-494, bHLH and ZIP domains, fused to the GAL4 binding domain) (Arabidopsis thaliana) (UniProt Q9LSE2); assay: two-hybrid; yeast GAL4 system (Clontech), AD fusion in pGADT7 and BD fusion in pGBKT7 co-transformed into AH109, 30°C for 3 days, growth on SD/-L-W-H-A
T1 sequence: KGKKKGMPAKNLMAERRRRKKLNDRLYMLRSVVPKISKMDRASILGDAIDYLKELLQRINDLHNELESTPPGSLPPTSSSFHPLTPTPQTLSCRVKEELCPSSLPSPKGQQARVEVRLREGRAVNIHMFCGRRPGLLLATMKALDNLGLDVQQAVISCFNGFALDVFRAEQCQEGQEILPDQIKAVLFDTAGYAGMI

[2] = target: T2, BD-ICE1-3 (C-terminal region of ICE1, amino acids 358-494, ZIP domain, fused to the GAL4 binding domain) (Arabidopsis thaliana) (UniProt Q9LSE2); assay: as above
T2 sequence: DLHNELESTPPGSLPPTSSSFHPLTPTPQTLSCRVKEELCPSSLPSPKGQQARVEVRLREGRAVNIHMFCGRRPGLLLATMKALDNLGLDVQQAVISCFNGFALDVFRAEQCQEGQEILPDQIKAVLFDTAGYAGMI

[3] = target: T3, cCFP-ICE1 (Arabidopsis thaliana) (UniProt Q9LSE2); assay: split reporter; BiFC: nYFP and cCFP fusions co-expressed for about 48 h in tobacco (Nicotiana benthamiana) leaf epidermal cells, GFP signal by confocal microscopy
T3 sequence: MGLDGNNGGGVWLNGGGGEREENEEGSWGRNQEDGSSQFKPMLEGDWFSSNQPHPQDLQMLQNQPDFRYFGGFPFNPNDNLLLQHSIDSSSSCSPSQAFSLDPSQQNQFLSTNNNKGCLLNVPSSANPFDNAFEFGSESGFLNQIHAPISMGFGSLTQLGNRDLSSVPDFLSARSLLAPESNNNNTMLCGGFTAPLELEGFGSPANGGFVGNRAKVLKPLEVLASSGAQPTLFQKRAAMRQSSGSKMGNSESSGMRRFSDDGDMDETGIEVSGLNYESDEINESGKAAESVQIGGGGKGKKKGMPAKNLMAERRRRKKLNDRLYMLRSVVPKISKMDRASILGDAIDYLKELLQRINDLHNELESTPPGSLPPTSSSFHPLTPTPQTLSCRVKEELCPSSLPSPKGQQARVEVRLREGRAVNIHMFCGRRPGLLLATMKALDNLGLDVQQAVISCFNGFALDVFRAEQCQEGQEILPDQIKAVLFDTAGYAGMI

[4] = target: T4, cLUC-ICE1 (Arabidopsis thaliana) (UniProt Q9LSE2); assay: split reporter; firefly luciferase complementation imaging (LCI): nLUC and cLUC fusions co-expressed in tobacco leaves at 22°C for about 48 h, 1 mM D-luciferin sprayed, low-light imaging
T4 sequence: T3 sequence

binding [1]: binds
binding [2]: binds
B1: AD-LFR (Leaf and Flower Related fused to the GAL4 activation domain) (protein, UniProt Q9LS90 1-460)
chain: MQKRELGKSGGNSGGSSGPPAKRGRPFGSTSANSAAAAAAAAAADAMSPSALLGPSLLVHNSFVEQNNRRIVLALQSGLKSEVTWALNTLTLLSFKEKEDIRRDVMPLAKIAGLLDALLLIIDDWRDIALPKDLTRGTRVRTLGTNASVTGFGNEYDALASIQPPGSGIGSSAAEALGKKSTGKHQSSQWWMEEDGLFNLDDEGRSEKQMCAIAASNVIRNFSFMPDNEVVMAQHRHCLETVFQCIHDHMTEDEELVTNSLETIVNLAHLMDLRIFSSLKQSYININEKKAVQAVVGILNSSVKAWNCAAAELLGRLIINPDNEPFISPLIPQIHKRLIDLLSIQAVDAQAAAVGALYNLVEVNMDCRLKLASERWAVDRLLKVIKTPHPVPEVCRKAAMILENLVSEPQNRGLLLAYENAFAELLFQEGKYSDSFARILYELTARSNSRVASARGIWGM

binding [3]: binds
B2: nYFP-LFR (protein, UniProt Q9LS90 1-460)
chain: B1 chain

binding [4]: binds
B3: LFR-nLUC (protein, UniProt Q9LS90 1-460)
chain: B1 chain
